log2 fold change data for 38 targets are collected here from the supplement of paper PMC12819154, “High-throughput peptide-centric local stability assay extends protein–ligand identification to membrane proteins, tissues and bacteria” (Nature Structural & Molecular Biology, 2025).

The chains behind the UniProt entries cited, without tags or fusion partners. Where a name states a change or a piece, a line headed by the entry shows the natural chain unless it says otherwise.
UniProt Q96RU2: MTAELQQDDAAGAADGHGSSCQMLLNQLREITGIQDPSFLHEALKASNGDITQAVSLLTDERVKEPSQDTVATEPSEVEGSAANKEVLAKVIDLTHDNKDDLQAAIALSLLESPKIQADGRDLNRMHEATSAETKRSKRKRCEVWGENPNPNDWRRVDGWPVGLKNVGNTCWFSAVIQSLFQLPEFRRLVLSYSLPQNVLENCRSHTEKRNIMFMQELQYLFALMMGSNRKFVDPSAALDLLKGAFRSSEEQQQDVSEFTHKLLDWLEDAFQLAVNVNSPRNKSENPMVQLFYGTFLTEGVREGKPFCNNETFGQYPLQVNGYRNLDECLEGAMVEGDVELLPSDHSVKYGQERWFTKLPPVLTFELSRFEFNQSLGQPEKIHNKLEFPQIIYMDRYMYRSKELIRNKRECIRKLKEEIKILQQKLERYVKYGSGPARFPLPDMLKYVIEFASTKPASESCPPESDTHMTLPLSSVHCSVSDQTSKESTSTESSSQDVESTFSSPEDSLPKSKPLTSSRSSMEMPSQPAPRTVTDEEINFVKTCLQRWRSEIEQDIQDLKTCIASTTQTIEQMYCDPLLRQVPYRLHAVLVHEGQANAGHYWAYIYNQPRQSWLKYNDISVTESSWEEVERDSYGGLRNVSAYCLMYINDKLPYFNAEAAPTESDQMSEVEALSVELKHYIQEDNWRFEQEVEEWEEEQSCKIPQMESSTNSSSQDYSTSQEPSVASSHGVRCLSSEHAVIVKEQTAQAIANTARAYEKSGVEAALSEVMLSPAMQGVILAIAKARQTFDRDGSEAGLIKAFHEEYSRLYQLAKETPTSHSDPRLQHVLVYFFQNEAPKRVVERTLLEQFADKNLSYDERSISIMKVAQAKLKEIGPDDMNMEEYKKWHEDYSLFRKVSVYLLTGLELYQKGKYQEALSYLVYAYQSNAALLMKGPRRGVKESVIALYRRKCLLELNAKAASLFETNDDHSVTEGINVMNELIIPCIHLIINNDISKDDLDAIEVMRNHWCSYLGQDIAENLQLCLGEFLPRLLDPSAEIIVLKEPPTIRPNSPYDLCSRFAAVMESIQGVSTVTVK
UniProt Q96H35: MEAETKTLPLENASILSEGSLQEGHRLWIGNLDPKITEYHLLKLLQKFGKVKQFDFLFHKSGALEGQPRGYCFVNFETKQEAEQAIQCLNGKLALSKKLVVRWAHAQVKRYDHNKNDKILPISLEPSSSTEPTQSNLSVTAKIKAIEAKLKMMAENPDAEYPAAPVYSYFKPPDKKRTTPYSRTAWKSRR
UniProt Q96NT0: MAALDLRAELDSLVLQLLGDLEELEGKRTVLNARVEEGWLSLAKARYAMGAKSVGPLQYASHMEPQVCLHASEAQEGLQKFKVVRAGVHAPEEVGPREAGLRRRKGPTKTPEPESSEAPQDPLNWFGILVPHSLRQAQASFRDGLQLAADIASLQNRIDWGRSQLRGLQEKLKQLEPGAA
UniProt Q96JY0: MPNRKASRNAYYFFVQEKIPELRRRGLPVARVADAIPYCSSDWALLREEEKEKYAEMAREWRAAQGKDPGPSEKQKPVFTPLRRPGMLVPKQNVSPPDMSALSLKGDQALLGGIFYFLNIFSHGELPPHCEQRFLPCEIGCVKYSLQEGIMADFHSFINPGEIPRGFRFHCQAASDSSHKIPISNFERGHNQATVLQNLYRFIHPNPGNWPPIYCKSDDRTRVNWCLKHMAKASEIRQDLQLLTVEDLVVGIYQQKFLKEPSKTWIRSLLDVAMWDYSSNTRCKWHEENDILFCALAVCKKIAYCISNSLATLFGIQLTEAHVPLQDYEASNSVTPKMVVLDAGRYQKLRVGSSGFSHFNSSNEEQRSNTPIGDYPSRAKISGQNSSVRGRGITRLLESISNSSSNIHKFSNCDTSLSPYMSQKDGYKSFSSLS
UniProt Q96PE1: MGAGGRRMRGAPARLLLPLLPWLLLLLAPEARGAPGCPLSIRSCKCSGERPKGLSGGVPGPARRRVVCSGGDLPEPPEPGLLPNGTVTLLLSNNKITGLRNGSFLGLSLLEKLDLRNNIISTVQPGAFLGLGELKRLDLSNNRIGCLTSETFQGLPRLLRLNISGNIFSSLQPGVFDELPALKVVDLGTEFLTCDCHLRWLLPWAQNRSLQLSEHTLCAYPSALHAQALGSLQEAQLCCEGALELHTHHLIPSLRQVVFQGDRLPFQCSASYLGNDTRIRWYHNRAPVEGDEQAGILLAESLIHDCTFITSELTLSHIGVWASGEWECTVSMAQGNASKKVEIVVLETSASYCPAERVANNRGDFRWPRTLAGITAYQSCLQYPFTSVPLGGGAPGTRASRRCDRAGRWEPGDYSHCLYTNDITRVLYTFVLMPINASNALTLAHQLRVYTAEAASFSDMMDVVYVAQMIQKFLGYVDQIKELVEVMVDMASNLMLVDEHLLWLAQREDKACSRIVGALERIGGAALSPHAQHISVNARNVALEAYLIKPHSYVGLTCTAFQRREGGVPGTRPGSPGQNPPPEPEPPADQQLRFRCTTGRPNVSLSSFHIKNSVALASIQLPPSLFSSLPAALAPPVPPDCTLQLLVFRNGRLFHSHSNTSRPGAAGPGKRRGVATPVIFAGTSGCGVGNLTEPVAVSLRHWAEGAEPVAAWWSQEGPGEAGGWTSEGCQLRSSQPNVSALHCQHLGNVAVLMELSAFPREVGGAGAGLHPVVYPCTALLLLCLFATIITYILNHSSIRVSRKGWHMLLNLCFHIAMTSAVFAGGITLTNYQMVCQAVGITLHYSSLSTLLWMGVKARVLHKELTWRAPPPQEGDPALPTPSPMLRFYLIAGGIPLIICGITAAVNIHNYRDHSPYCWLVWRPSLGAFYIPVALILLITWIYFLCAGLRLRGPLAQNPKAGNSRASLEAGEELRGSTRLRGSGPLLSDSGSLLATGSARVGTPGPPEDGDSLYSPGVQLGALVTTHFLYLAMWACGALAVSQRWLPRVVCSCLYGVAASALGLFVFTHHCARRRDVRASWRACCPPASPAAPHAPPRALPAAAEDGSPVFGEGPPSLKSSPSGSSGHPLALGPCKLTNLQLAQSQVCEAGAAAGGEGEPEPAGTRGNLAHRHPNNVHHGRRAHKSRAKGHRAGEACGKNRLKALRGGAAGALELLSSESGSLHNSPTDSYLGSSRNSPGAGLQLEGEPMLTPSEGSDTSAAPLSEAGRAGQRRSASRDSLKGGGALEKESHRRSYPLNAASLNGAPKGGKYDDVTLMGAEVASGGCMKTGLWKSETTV
UniProt Q96PM9: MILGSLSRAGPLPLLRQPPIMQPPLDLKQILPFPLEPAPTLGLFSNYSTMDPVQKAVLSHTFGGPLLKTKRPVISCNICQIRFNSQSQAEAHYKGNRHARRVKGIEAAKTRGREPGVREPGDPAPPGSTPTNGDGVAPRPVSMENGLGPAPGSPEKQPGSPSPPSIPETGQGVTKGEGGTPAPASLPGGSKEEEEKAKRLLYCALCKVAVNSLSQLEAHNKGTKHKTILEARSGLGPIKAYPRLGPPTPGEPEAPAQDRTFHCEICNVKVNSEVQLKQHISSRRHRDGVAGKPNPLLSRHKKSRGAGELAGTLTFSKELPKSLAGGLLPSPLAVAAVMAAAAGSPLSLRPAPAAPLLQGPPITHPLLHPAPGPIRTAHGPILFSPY
UniProt Q96RY7: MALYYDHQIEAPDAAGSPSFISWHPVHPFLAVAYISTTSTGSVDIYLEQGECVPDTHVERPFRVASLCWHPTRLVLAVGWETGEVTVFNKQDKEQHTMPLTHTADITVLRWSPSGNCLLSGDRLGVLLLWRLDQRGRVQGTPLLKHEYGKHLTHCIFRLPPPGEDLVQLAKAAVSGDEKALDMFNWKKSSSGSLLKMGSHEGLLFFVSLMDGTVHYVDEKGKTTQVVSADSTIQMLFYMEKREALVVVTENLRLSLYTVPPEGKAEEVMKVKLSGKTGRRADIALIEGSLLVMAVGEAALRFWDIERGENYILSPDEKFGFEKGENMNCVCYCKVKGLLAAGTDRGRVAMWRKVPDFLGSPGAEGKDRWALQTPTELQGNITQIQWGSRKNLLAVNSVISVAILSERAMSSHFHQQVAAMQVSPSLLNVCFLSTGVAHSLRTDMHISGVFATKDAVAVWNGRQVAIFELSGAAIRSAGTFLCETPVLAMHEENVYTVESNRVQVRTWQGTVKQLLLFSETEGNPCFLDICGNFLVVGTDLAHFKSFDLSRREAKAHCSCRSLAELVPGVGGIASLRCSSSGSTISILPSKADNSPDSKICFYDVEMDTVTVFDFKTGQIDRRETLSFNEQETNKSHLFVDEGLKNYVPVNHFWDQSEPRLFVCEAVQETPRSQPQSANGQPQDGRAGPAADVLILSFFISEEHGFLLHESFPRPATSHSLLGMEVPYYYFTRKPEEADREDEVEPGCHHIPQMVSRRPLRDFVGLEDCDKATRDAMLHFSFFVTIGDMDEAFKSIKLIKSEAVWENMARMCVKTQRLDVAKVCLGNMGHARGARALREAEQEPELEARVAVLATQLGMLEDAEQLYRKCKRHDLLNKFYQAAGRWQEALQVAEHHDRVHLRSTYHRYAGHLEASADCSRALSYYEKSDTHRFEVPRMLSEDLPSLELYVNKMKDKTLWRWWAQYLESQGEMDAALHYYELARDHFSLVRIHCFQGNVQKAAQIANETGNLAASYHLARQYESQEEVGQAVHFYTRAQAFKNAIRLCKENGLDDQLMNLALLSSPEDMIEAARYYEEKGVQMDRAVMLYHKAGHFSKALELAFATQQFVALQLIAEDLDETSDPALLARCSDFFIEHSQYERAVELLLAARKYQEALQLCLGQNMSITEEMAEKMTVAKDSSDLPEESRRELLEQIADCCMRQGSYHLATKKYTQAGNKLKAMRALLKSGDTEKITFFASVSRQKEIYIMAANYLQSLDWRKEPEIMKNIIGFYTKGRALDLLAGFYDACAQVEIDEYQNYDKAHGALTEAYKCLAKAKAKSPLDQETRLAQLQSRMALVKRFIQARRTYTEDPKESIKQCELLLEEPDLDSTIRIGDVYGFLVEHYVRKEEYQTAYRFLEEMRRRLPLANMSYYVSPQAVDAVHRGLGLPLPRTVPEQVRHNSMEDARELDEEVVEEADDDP
UniProt Q96HP4: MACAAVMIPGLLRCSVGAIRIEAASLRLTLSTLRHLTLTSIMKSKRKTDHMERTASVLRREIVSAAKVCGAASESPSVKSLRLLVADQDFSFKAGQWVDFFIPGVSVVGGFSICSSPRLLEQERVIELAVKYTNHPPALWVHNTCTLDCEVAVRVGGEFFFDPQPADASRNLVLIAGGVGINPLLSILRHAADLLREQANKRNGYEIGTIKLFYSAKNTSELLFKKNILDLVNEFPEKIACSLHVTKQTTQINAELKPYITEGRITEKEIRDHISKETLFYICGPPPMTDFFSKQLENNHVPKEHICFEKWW
UniProt Q96NA2: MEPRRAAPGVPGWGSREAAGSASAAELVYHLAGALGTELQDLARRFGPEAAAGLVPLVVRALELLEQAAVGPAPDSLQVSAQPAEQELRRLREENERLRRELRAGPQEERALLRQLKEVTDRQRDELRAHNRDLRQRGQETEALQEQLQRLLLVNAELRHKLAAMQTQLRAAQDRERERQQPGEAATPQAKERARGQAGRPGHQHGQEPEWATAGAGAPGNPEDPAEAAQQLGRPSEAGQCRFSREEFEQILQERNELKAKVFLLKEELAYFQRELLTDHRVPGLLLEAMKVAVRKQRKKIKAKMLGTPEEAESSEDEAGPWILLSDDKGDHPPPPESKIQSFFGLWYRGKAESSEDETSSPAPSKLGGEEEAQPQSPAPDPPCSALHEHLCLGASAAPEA
UniProt Q96N46: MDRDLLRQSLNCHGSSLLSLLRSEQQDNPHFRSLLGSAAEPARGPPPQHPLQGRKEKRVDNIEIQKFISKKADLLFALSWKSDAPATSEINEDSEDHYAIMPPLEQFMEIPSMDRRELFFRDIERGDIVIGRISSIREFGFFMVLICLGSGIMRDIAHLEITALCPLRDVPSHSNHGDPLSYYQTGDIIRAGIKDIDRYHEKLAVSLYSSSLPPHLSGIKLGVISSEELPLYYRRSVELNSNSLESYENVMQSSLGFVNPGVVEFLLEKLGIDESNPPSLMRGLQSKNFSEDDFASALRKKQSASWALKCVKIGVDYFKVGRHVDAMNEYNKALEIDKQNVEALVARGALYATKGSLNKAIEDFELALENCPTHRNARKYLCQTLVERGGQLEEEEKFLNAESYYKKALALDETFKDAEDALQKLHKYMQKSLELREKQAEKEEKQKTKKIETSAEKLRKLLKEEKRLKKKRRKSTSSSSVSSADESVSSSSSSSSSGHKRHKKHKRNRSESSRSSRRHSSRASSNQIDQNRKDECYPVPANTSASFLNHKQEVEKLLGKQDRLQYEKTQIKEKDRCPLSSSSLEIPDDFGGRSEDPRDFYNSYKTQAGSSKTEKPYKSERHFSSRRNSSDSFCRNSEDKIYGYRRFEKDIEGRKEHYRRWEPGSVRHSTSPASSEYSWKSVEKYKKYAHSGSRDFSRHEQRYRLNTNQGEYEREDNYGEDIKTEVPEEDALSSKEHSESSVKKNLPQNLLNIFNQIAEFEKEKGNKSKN

This is one part of the list. Small differences around the control level are noise.

Compound in the assay: Cc1nc(Nc2ncc(C(=O)Nc3c(C)cccc3Cl)s2)cc(N2CCN(CCO)CC2)n1 [dasatinib]
Put plainly: log2 fold change of tryptic peptide abundance, ligand vs vehicle (limited proteolysis) (log2 ratio); higher = more trypsin-susceptible (destabilized). The following applies: ligand concentration: 5 uM; sample: K562 cleared lysate.
As to “SNX18 (peptide sequence: GGSVPPQHHPSGPK, peptide start residue: 207) (UniProt Q96RF0)”, the log2 fold change came to 0.275.

For “MCEE (peptide sequence: IGAHGKPVIFLHPK, peptide start residue: 151) (UniProt Q96PE7)”, the log2 fold change was -0.0749.

As to “USP28 (peptide sequence: CLLELNAK, peptide start residue: 952) (UniProt Q96RU2)”, the log2 fold change was -0.105.

With “UniProt Q96IX9 (peptide sequence: KHEDLQK, peptide start residue: 1410)”, the log2 fold change was -0.0885.

For the target “TMEM41A (peptide sequence: HLQLNETSTANHIHSR, peptide start residue: 246) (UniProt Q96HV5)”, the log2 fold change was found to be 0.166.

On to “ITCH (peptide sequence: SYEQLKEK, peptide start residue: 882) (UniProt Q96J02)”, for which the log2 fold change was -0.872.

With “UniProt Q96J77 (peptide sequence: CGELKRK, peptide start residue: 57)”, the log2 fold change is 0.326.

Turning to “RBM18 (peptide sequence: QFDFLFHK, peptide start residue: 53) (UniProt Q96H35)”, the log2 fold change was -0.273.

For “RPS6KC1 (peptide sequence: SFPAHLAADSDSPSTQLR, peptide start residue: 549) (UniProt Q96S38)”, the log2 fold change worked out at 0.232.

Turning to “UniProt Q96RR1 (peptide sequence: ALSPFAESSQLK, peptide start residue: 80)”, the log2 fold change was -0.0758.

Turning to “NSUN5 (peptide sequence: YHEVHYILLDPSCSGSGMPSR, peptide start residue: 296) (UniProt Q96P11)”, the log2 fold change turned out to be 0.547.

Consider “CCDC115 (peptide sequence: VEEGWLSLAK, peptide start residue: 35) (UniProt Q96NT0)”, for which the log2 fold change turned out to be 0.101.

As to “UniProt Q96JY0 (peptide sequence: MVVLDAGR, peptide start residue: 338)”, the log2 fold change is 0.096.

As to “SUCLG2 (peptide sequence: FFVADTANEALEAAKR, peptide start residue: 59) (UniProt Q96I99)”, the log2 fold change came out at 0.309.

For the target “BOD1 (peptide sequence: LNHIFRPQIER, peptide start residue: 141) (UniProt Q96IK1)”, the log2 fold change is -0.108.

“UniProt Q96HM7 (peptide sequence: GHMHNGLNYR, peptide start residue: 68)”: the log2 fold change amounted to 0.442.

In the case of “CDCA5 (peptide sequence: ISFFLEKENEPPGR, peptide start residue: 82) (UniProt Q96FF9)”, the log2 fold change is -0.256.

Consider “UniProt Q96PE1 (peptide sequence: GGGALEK, peptide start residue: 1282)”, for which the log2 fold change was found to be 0.04.

Regarding “NSMCE2 (peptide sequence: NKVCGHTYEEDAIVR, peptide start residue: 182) (UniProt Q96MF7)”, the log2 fold change was 0.186.

With “SLC38A2 (peptide sequence: SHYADVDPENQNFLLESNLGKK, peptide start residue: 39) (UniProt Q96QD8)”, the log2 fold change was 0.0424.

In the case of “MED15 (peptide sequence: QWQYDANPFLQSVHR, peptide start residue: 740) (UniProt Q96RN5)”, the log2 fold change is -0.574.

“WDR89 (peptide sequence: VHSNDSYKR, peptide start residue: 375) (UniProt Q96FK6)”: the log2 fold change came to 0.552.

Regarding “ZNF385A (peptide sequence: TFHCEICNVK, peptide start residue: 260) (UniProt Q96PM9)”, the log2 fold change was -0.155.

Turning to “IFT140 (peptide sequence: TYTEDPKESIK, peptide start residue: 1348) (UniProt Q96RY7)”, the log2 fold change is -0.968.

Regarding “SNF8 (peptide sequence: GVGAGAIAKK, peptide start residue: 5) (UniProt Q96H20)”, the log2 fold change is -0.31.

On to “UniProt Q96K30 (peptide sequence: YRPISHTPSYCDESLFGSR, peptide start residue: 100)”, for which the log2 fold change was found to be 0.04.

“SENP5 (peptide sequence: YGSLVPLSEKEVLGR, peptide start residue: 514) (UniProt Q96HI0)”: the log2 fold change was -0.216.

As to “CRAMP1 (peptide sequence: KDPPSAVGSGNAGGSGPR, peptide start residue: 96) (UniProt Q96RY5)”, the log2 fold change is 0.383.

As for “IPO9 (peptide sequence: IHEACMLALGSVK, peptide start residue: 446) (UniProt Q96P70)”, the log2 fold change was -0.185.

Consider “UniProt Q96KN8 (peptide sequence: PASRTASTGPK, peptide start residue: 25)”, for which the log2 fold change is -0.0128.

Regarding “UniProt Q96H86 (peptide sequence: GRPSLCAHPPVPR, peptide start residue: 158)”, the log2 fold change was 0.251.

With “TRIM11 (peptide sequence: VRPLQDAAEDLK, peptide start residue: 125) (UniProt Q96F44)”, the log2 fold change is -0.312.

For “OXNAD1 (peptide sequence: EHICFEK, peptide start residue: 304) (UniProt Q96HP4)”, the log2 fold change was found to be 0.164.

Consider “RNPC3 (peptide sequence: LKHTAFATFPNEK, peptide start residue: 64) (UniProt Q96LT9)”, for which the log2 fold change is -0.232.

For the target “BORCS8 (peptide sequence: SLPELAQHK, peptide start residue: 42) (UniProt Q96FH0)”, the log2 fold change is -0.219.

For the target “RILP (peptide sequence: IQSFFGLWYR, peptide start residue: 340) (UniProt Q96NA2)”, the log2 fold change was determined as 0.877.

As for “ZNF668 (peptide sequence: GHTGERPYACADCGK, peptide start residue: 161) (UniProt Q96K58)”, the log2 fold change is -0.508.

Regarding “TTC14 (peptide sequence: HVDAMNEYNK, peptide start residue: 323) (UniProt Q96N46)”, the log2 fold change was -0.504.
